Repeats are few or missing, and single values can be far off.
Compound: [O-][N+](C(C1=C(C(O)=C2)NC(C(C=C3)=CC=C3Cl)C4C1C=CC4)=C2Cl)=O
Experiment: melting temperature shift (compound 7 minus DMSO); higher = compound stabilises the protein
Conditions: 10 µM
Procedure: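 Thermal proteome profiling (TMT mass spectrometry) in intact DAOY medulloblastoma cells or DAOY lysates treated with 10 µM compound 7 or DMSO, heated at 10 temperatures from 40.5 to 73.8 °C for 3 min. Melting curves were fitted with the Bioconductor TPP package, and the melting point difference between compound and vehicle is reported per protein (single curve per condition).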

Protein sequences, listed by entry. Tags and fused reporters are not part of them. Lines headed by an entry give the natural chain unless they say otherwise; changes in a name come on top.
UniProt Q99497, whole entry: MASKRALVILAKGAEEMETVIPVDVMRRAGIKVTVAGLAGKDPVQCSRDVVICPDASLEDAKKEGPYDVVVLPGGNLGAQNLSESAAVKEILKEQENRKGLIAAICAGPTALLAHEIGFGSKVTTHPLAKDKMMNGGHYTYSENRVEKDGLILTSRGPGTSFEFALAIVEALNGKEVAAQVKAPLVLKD
UniProt Q5VZM2, whole entry: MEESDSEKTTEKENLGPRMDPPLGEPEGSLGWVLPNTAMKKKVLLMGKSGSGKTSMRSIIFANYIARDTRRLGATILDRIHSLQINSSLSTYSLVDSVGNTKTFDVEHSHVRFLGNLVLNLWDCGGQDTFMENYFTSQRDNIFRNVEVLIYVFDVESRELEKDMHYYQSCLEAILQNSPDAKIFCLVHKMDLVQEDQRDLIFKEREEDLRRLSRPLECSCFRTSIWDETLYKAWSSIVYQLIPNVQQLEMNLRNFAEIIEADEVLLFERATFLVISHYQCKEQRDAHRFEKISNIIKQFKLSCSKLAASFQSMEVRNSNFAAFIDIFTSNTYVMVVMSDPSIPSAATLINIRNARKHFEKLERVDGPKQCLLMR
UniProt Q96SI1: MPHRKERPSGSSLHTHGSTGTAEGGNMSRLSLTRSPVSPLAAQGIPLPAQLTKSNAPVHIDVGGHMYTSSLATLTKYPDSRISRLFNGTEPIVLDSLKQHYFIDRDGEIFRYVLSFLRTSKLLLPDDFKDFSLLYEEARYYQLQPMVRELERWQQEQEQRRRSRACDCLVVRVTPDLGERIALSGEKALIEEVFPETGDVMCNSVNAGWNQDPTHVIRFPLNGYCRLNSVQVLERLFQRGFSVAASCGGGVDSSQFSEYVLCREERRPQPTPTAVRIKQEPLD
UniProt Q9UIF9: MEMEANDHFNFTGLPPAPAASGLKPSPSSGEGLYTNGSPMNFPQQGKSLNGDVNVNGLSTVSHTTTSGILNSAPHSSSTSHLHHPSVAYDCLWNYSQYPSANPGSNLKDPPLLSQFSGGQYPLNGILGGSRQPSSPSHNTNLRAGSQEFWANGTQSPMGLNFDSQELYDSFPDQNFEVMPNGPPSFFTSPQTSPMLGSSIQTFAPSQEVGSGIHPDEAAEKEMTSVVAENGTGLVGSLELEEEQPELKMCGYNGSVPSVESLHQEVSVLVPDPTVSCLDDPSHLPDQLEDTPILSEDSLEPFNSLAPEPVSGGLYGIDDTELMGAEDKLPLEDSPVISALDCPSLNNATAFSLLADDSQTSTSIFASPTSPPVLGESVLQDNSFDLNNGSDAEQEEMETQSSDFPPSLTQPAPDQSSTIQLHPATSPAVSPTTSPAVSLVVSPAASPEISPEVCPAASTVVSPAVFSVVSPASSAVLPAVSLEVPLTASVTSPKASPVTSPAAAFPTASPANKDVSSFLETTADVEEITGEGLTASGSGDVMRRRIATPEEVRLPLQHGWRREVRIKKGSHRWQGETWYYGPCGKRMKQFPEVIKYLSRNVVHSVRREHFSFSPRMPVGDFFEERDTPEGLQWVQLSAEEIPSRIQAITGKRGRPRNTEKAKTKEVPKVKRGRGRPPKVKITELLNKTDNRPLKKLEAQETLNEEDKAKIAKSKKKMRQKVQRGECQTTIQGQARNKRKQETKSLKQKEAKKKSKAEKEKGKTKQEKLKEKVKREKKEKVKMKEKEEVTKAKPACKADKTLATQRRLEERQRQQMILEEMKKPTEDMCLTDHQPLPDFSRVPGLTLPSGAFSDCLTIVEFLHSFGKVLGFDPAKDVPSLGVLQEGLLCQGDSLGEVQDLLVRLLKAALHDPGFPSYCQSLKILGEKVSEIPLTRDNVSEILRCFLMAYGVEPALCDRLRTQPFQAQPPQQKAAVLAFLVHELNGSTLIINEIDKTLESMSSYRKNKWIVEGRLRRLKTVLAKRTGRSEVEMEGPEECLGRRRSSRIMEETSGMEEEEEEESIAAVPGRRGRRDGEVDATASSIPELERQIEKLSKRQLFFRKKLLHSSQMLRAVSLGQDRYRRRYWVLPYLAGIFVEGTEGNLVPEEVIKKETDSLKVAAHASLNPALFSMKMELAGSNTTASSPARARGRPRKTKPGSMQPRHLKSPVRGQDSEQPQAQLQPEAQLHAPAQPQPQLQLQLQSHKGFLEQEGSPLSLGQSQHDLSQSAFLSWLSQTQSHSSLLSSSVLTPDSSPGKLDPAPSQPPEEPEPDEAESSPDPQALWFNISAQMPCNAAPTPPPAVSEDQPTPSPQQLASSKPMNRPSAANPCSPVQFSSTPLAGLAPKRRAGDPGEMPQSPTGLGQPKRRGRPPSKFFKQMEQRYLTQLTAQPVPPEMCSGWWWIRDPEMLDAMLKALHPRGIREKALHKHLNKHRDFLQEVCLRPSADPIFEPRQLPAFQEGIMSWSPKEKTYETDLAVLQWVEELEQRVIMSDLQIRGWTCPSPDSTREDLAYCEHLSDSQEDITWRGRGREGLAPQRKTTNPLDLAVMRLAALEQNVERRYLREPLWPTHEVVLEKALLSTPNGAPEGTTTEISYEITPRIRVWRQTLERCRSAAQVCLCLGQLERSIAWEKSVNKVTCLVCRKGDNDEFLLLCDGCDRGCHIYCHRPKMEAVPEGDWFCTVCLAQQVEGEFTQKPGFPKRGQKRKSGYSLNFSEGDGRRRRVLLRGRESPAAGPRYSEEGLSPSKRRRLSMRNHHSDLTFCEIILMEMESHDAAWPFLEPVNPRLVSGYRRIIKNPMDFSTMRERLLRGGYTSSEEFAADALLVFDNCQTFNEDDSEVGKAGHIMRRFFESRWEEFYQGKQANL
UniProt Q12857, whole entry: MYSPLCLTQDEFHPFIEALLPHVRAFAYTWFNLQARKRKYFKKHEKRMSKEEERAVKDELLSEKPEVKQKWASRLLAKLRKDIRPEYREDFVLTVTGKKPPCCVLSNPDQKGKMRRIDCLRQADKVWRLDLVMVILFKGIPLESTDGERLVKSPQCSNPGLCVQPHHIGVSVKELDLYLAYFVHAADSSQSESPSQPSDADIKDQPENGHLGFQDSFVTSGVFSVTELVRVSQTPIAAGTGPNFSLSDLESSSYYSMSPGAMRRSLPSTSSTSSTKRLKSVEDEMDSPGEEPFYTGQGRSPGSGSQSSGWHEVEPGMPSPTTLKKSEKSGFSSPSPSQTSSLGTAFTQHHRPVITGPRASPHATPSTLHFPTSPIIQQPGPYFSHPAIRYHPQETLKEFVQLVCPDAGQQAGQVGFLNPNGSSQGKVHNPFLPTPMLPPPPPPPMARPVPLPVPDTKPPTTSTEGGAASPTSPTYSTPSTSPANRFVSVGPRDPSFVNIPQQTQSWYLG
UniProt P63241: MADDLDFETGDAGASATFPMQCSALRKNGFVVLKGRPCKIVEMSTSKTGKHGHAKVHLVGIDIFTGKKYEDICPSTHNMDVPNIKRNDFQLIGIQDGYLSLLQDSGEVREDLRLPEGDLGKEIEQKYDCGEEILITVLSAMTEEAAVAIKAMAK
UniProt P69849: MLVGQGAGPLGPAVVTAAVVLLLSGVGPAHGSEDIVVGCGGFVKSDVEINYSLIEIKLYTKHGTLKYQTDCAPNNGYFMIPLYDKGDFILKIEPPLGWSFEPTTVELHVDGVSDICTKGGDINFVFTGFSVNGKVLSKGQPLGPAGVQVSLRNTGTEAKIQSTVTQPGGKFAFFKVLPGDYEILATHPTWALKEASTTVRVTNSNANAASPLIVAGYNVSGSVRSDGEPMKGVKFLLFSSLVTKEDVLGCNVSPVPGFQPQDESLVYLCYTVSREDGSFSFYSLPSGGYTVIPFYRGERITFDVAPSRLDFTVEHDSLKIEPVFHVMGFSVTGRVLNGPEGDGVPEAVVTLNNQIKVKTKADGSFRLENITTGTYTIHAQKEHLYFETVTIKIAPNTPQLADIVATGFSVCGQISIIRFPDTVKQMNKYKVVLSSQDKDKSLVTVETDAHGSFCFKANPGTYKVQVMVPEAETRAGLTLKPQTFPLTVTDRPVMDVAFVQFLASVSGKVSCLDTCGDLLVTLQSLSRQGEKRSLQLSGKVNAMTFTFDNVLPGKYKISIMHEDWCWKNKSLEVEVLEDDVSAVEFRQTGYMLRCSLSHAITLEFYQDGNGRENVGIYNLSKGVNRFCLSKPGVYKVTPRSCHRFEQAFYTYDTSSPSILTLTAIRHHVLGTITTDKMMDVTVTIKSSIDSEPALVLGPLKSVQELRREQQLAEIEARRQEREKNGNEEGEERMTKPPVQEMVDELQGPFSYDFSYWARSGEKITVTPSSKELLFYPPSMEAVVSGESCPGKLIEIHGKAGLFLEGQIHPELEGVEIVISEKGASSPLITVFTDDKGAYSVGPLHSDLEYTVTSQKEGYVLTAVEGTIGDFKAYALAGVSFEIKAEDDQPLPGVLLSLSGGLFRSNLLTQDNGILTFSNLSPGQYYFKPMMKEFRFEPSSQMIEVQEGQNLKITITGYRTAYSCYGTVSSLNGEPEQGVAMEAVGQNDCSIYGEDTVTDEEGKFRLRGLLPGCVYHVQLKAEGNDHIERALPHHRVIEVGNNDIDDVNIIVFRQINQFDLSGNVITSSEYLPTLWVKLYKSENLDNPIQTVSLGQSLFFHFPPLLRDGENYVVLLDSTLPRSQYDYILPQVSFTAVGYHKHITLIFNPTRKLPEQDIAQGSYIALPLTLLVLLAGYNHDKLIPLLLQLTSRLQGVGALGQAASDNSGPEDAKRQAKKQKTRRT
UniProt P18858, whole entry: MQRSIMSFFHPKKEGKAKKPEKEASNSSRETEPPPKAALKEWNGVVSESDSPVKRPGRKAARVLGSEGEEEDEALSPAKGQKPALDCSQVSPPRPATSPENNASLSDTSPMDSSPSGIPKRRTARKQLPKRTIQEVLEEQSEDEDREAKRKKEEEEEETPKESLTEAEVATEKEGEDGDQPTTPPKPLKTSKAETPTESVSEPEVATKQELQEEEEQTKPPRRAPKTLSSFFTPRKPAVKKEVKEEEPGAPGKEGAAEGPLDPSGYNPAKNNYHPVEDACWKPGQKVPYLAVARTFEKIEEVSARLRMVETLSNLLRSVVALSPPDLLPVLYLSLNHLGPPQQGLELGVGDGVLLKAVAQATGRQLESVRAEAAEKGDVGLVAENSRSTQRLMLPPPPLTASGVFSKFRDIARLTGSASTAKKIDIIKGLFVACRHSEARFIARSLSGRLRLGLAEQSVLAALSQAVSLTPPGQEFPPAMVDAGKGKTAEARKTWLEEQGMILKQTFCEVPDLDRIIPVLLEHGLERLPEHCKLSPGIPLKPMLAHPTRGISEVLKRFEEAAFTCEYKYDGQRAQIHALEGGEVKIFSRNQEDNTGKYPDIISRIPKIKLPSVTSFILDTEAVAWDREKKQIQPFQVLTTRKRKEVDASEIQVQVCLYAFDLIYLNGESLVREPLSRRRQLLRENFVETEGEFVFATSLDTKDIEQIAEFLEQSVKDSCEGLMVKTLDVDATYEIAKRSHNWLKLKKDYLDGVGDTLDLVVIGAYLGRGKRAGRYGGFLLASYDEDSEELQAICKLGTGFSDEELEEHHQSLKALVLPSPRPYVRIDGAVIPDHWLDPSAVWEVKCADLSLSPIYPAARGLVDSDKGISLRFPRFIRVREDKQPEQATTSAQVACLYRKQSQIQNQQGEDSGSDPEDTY
UniProt P13984, whole entry: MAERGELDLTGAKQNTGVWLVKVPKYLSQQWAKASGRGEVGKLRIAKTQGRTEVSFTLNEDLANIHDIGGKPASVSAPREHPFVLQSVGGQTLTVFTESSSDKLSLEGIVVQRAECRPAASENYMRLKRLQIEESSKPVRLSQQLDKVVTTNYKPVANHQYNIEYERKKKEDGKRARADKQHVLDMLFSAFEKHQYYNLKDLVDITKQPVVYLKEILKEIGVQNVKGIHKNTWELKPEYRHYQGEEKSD
UniProt Q9H6X2: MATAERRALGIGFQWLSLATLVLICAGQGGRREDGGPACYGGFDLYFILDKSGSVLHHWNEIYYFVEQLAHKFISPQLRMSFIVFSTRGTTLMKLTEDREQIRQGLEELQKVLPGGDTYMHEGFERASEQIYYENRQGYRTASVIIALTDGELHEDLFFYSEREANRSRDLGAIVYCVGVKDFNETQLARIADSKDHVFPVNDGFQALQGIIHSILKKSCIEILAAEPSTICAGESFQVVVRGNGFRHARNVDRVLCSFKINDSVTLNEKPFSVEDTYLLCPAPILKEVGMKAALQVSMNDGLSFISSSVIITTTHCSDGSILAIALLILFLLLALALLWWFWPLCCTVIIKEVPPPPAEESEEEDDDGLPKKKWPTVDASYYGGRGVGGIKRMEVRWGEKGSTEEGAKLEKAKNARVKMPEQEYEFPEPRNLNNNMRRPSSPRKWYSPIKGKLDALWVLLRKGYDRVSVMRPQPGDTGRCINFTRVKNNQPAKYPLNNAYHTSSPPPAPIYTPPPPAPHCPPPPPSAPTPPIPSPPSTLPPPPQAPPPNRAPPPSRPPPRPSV
UniProt Q13951, whole entry: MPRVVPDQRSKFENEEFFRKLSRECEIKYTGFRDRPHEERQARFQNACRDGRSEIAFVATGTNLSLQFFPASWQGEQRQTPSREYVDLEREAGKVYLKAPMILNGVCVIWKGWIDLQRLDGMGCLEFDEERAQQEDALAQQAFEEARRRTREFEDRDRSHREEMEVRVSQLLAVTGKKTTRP

[1] = system: DAOY cell lysate, treatment time: 20 min, 4 °C
[2] = system: intact DAOY cells, treatment time: 90 min, 37 °C

| Target | melting temperature shift [1] [°C] | melting temperature shift [2] [°C] |
| --- | --- | --- |
| AIDA (UniProt Q96BJ3) | 0.751 | -0.163 |
| PCBD1 (UniProt P61457) | 1.16 | – |
| UniProt Q9NVA2 | -1.31 | 0.765 |
| UniProt O75356 | 0.621 | – |
| PARK7 (UniProt Q99497) | -1.1 | -2.64 |
| UniProt Q5VUB5 | -0.166 | – |
| UniProt Q5VZM2 | – | 1.37 |
| KCTD15 (UniProt Q96SI1) | -0.778 | 1.14 |
| UniProt A6NLJ0 | – | -0.484 |
| SBNO1 (UniProt A3KN83) | -0.0491 | -1.32 |
| UniProt Q9UIF9 | -1.73 | – |
| UIMC1 (UniProt Q96RL1) | -0.396 | 2.25 |
| RANBP1 (UniProt P43487) | -2.41 | 0.00222 |
| STX3 (UniProt Q13277) | 2.18 | 0.967 |
| HNRNPUL2 (UniProt Q1KMD3) | 0.0779 | -1.08 |
| PTDSS2 (UniProt Q9BVG9) | -0.416 | 0.961 |
| CTBP2 (UniProt P56545) | -1.62 | 0.874 |
| ERAL1 (UniProt O75616) | – | 1.91 |
| VAPA (UniProt Q9P0L0) | 2.07 | -0.394 |
| C20ORF27 (UniProt Q9GZN8) | -1.18 | -0.578 |
| MAPRE2 (UniProt Q15555) | -0.876 | 1.34 |
| IGSF3 (UniProt O75054) | – | -0.0448 |

| Target | melting temperature shift [1] [°C] | melting temperature shift [2] [°C] |
| --- | --- | --- |
| CARS2 (UniProt Q9HA77) | 0.637 | -1.45 |
| ASCC1 (UniProt Q8N9N2) | -0.425 | 0.679 |
| PDCD2L (UniProt Q9BRP1) | -0.0941 | -1.19 |
| RAB27A (UniProt P51159) | 1.43 | -1.66 |
| PPP1CB (UniProt P62140) | -0.244 | 0.0352 |
| BLOC1S1 (UniProt P78537) | -0.0158 | – |
| NEK6 (UniProt Q9HC98) | -2.56 | – |
| NFIA (UniProt Q12857) | – | 5.98 |
| UniProt Q7RTW8 | – | -0.617 |
| CIZ1 (UniProt Q9ULV3) | 0.918 | -1.96 |
| CALCOCO2 (UniProt Q13137) | -0.603 | 0.796 |
| LARP4 (UniProt Q71RC2) | -0.446 | – |
| UniProt Q9BX66 | – | -0.751 |
| VDAC1 (UniProt P21796) | 3.09 | 0.388 |
| ECI1 (UniProt P42126) | -0.908 | 0.793 |
| PPP5C (UniProt P53041) | -1.01 | 0.448 |
| EIF5A (UniProt P63241) | -0.707 | -0.153 |
| IBA57 (UniProt Q5T440) | – | 1.89 |
| USP4 (UniProt Q13107) | -0.516 | – |
| GNA11 (UniProt P29992) | 0.796 | -0.193 |
| UniProt Q9UPT6 | – | -0.142 |
| UniProt Q86VX2 | -1.34 | -0.77 |

| Target | melting temperature shift [1] [°C] | melting temperature shift [2] [°C] |
| --- | --- | --- |
| DCAF7 (UniProt P61962) | -0.517 | 0.238 |
| PHACTR4 (UniProt Q8IZ21) | 1.42 | 1.51 |
| C2ORF47 (UniProt Q8WWC4) | 1.51 | -0.9 |
| UniProt Q9Y4K1 | 0.69 | – |
| BRD4 (UniProt O60885) | -0.5 | 0.369 |
| UniProt Q5JWF2 | – | -0.542 |
| NASP (UniProt P49321) | -0.919 | 0.663 |
| FTSJ3 (UniProt Q8IY81) | 0.59 | – |
| NUP155 (UniProt O75694) | -0.188 | -0.0935 |
| PBXIP1 (UniProt Q96AQ6) | – | -1.07 |
| UniProt Q92766 | -0.372 | – |
| UniProt Q13487 | – | 0.0274 |
| HAUS3 (UniProt Q68CZ6) | -1.08 | 0.27 |
| UniProt O96033 | -1.08 | -0.694 |
| PRDX5 (UniProt P30044) | 0.171 | -0.768 |
| UniProt P10114 | – | -3.18 |
| C14ORF166 (UniProt Q9Y224) | -0.681 | -0.418 |
| UniProt P35556 | – | -0.284 |
| DHX8 (UniProt Q14562) | 1.61 | -1.63 |
| ATP6V1A (UniProt P38606) | -0.324 | 1.49 |
| UniProt P69849 | 1.27 | -0.762 |
| ATP6V1D (UniProt Q9Y5K8) | -1.42 | 1.91 |

| Target | melting temperature shift [1] [°C] | melting temperature shift [2] [°C] |
| --- | --- | --- |
| UniProt Q96JQ2 | 1.35 | – |
| LIG1 (UniProt P18858) | -0.402 | -0.492 |
| SCARB2 (UniProt Q14108) | 4.02 | – |
| CPT1A (UniProt P50416) | 0.139 | 0.289 |
| PGD (UniProt P52209) | -0.457 | -0.843 |
| DDX23 (UniProt Q9BUQ8) | -0.0754 | 0.949 |
| OVCA2 (UniProt Q8WZ82) | -0.24 | -0.729 |
| TSR1 (UniProt Q2NL82) | -0.58 | 0.0676 |
| UniProt B7ZAP0 | -0.441 | – |
| GTF2F2 (UniProt P13984) | -0.516 | -0.658 |
| USMG5 (UniProt Q96IX5) | 3.16 | – |
| TXLNA (UniProt P40222) | -1.29 | 0.155 |
| NCAPG2 (UniProt Q86XI2) | -1.93 | -1.38 |
| NUBP2 (UniProt Q9Y5Y2) | -0.591 | 0.479 |
| EAPP (UniProt Q56P03) | -0.172 | -0.793 |
| ANTXR1 (UniProt Q9H6X2) | 0.617 | – |
| ZNF326 (UniProt Q5BKZ1) | 0.112 | -0.189 |
| PRMT9 (UniProt Q6P2P2) | -0.958 | – |
| CBFB (UniProt Q13951) | -0.243 | 0.429 |
| UniProt P51513 | – | -0.99 |
| UniProt P0DJ07 | 2.04 | – |

Shown bar-delimited: entries from further up.
Target | melting temperature shift [1] [°C] | melting temperature shift [2] [°C]
UniProt P10114 | – | -3.18
C14ORF166 (UniProt Q9Y224) | -0.681 | -0.418
UniProt P35556 | – | -0.284
DHX8 (UniProt Q14562) | 1.61 | -1.63
ATP6V1A (UniProt P38606) | -0.324 | 1.49
UniProt P69849 | 1.27 | -0.762
ATP6V1D (UniProt Q9Y5K8) | -1.42 | 1.91
UniProt Q96JQ2 | 1.35 | –
LIG1 (UniProt P18858) | -0.402 | -0.492
SCARB2 (UniProt Q14108) | 4.02 | –
CPT1A (UniProt P50416) | 0.139 | 0.289
PGD (UniProt P52209) | -0.457 | -0.843
DDX23 (UniProt Q9BUQ8) | -0.0754 | 0.949
OVCA2 (UniProt Q8WZ82) | -0.24 | -0.729
TSR1 (UniProt Q2NL82) | -0.58 | 0.0676
UniProt B7ZAP0 | -0.441 | –
GTF2F2 (UniProt P13984) | -0.516 | -0.658
USMG5 (UniProt Q96IX5) | 3.16 | –
TXLNA (UniProt P40222) | -1.29 | 0.155
NCAPG2 (UniProt Q86XI2) | -1.93 | -1.38
NUBP2 (UniProt Q9Y5Y2) | -0.591 | 0.479
EAPP (UniProt Q56P03) | -0.172 | -0.793
ANTXR1 (UniProt Q9H6X2) | 0.617 | –
ZNF326 (UniProt Q5BKZ1) | 0.112 | -0.189
PRMT9 (UniProt Q6P2P2) | -0.958 | –
CBFB (UniProt Q13951) | -0.243 | 0.429

Reference: the supplement of paper PMC10060354, “Discovery of a small molecule ligand of FRS2 that inhibits invasion and tumor growth” (Cellular Oncology, 2022)
